Values quoted from earlier work, collected in patent US20080138411A1, “Modified Release Formulations Of Selective Serotonin Re-Uptake Inhibitors” (priority 2002, published 2008).
Like-named read-outs stand apart in the source and are kept apart here.

Experiments:
[1] = in vivo; cited from earlier work
[2] = cited from earlier work; for time to reach peak plasma concentration (Tmax): tablet

| Compound | effect of food on systemic bioavailability [1] | Tmax ([2]; oral concentrate, single dose without food) | time to reach peak plasma concentration (Tmax) ([2]; single dose with food) | time to reach peak plasma concentration (Tmax) ([2]; single dose without food) |
| --- | --- | --- | --- | --- |
| CNCCC(Oc1ccc(C(F)(F)F)cc1)c1ccccc1.Cl (racemic) [Fluoxetine, (±)-N-methyl-3-phenyl-3-[(α,α,α-trifluoro-p-tolyl)oxy)propylamine hydrochloride] | does not appear to affect | – | – | – |
| CN[C@H]1CC[C@@H](c2ccc(Cl)c(Cl)c2)c2ccccc21.Cl [Sertraline, (1S-cis)-4(3,4-dichlorophenyl)-1,2,3,4-tetrahydro-N-methyl-1-naphthalenamine hydrochloride] | – | 5.9 h | 5.5 h | 8 h |
